The values below come from PMC4726530 (PLoS ONE, 2016).

Sequences of proteins named here, by UniProt entry; tags and fusion partners are left off. A change or cut given only in a name is not applied to a line headed by its entry.
UniProt F9VNL4: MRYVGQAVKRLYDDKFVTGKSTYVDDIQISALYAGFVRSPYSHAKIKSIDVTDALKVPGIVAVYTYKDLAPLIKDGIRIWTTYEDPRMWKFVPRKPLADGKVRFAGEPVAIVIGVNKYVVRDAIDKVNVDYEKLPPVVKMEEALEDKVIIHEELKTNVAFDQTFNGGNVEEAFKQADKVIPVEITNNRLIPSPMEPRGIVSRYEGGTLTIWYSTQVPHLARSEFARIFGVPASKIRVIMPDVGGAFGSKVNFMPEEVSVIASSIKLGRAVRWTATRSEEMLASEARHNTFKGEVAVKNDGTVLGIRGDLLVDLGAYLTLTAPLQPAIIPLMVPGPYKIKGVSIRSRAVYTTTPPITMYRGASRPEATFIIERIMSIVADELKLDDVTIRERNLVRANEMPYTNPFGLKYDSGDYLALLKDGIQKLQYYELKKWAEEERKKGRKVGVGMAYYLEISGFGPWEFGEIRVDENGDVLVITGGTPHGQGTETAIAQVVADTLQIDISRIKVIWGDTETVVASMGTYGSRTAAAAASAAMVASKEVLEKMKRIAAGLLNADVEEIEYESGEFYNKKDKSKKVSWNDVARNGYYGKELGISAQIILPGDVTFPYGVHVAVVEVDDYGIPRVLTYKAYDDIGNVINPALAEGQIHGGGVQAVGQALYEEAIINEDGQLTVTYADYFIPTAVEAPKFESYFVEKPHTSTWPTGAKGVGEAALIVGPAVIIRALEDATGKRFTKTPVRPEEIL
UniProt F9VNL5: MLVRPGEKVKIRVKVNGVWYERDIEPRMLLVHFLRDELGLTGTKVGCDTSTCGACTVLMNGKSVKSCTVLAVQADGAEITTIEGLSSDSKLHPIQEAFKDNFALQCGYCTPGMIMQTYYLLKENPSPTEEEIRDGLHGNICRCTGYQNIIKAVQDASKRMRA
UniProt F9VNL6: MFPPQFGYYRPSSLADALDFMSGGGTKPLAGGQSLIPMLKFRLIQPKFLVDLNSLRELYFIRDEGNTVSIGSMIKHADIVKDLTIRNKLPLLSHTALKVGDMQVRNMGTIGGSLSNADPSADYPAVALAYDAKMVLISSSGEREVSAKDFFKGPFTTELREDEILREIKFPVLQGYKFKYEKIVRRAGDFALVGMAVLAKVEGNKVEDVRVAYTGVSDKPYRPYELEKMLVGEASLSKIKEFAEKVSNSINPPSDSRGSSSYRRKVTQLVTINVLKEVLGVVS

In the assay the target is STK17810, molybdo-pyranopterin L-subunit of glyceraldehyde oxidoreductase GAOR1 (Sulfolobus tokodaii (endogenous, purified from the cells)) (UniProt F9VNL4). The experiment in a line: co-purification through successive chromatographies, subunits identified by SDS-PAGE and N-terminal sequencing; GA-oxidizing activity followed from S. tokodaii cell-free extract over DE52, Butyl Toyopearl, Q-Sepharose, hydroxyapatite and Superdex 200 at room temperature; bands of the purified enzymes blotted and sequenced.

These are yes or no findings as the source states them, for the method shown. In cells and extracts the contact can be indirect. A result given as binding can be weak or reduced; the word gives no strength.

Take “STK17820, iron-sulfur S-subunit of glyceraldehyde oxidoreductase GAOR1 (from UniProt F9VNL5)”: the binding result is on record as “binds”.
With “STK17830, flavin M-subunit of glyceraldehyde oxidoreductase GAOR1 (from UniProt F9VNL6)”, the binding entry is given as “binds”.
